Experimental data as given in article PMC7515921, “MFSD7C switches mitochondrial ATP synthesis to thermogenesis in response to heme” (Nature Communications, 2020).
No constants are given. Whether binding was seen depends on the method and setting. In cells and extracts the contact can be indirect. Here binding means that the protein was enriched with, or labelled near, the bait; the list need not be complete. Where a sequence is shown, tags or fusion partners need not be part of it.

Protein sequences, listed by entry. Tags and fused reporters are not part of them. Residues count along the entry.
UniProt Q9R049: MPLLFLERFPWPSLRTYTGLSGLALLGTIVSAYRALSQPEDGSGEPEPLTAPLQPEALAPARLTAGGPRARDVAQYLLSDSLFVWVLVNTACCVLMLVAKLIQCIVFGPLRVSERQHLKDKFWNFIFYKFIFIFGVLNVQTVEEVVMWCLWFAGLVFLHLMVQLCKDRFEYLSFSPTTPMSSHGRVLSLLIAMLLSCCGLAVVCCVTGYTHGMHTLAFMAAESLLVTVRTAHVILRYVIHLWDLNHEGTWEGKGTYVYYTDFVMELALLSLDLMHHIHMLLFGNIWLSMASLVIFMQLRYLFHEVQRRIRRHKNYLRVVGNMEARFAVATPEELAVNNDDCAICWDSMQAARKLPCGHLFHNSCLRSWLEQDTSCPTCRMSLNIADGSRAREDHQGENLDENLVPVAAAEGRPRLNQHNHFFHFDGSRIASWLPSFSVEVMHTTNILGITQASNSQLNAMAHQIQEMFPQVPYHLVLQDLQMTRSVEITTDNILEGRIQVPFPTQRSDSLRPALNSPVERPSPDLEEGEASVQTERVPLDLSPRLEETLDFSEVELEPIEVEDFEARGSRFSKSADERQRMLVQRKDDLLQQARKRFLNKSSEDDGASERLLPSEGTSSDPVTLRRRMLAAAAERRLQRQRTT
UniProt O35387: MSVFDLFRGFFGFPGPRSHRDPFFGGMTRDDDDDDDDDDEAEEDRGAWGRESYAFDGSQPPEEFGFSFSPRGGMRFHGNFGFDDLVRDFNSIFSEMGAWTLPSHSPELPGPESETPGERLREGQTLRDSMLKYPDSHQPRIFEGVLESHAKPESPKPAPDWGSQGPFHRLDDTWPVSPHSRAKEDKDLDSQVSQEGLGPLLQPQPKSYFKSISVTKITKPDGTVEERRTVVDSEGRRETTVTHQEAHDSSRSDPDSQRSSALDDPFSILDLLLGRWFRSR
UniProt Q9DCX2: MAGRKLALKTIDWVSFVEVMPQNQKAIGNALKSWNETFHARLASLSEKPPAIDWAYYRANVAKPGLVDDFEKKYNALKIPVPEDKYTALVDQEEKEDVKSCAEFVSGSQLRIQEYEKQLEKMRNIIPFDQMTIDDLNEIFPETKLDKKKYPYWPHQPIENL
UniProt Q8JZQ2, residues 67-802: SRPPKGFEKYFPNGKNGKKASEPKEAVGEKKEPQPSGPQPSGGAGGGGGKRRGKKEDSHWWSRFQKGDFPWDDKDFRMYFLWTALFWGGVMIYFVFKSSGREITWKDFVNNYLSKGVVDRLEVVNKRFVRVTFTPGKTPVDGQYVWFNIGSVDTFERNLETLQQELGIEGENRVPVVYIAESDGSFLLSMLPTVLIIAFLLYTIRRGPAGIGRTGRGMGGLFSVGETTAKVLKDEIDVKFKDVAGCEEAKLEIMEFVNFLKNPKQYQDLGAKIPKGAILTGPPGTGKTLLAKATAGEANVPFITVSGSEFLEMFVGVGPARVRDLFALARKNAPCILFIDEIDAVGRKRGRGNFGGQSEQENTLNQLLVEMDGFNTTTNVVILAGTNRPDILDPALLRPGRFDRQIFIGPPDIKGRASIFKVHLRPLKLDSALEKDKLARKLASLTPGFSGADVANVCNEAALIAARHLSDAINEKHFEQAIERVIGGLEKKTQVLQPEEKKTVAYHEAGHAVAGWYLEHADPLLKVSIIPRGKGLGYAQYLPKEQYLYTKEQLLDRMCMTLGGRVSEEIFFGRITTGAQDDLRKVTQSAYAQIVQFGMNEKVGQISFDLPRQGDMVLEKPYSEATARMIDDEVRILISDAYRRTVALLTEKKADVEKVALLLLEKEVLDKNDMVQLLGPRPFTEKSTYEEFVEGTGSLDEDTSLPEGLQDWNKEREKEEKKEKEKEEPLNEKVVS
UniProt P29351: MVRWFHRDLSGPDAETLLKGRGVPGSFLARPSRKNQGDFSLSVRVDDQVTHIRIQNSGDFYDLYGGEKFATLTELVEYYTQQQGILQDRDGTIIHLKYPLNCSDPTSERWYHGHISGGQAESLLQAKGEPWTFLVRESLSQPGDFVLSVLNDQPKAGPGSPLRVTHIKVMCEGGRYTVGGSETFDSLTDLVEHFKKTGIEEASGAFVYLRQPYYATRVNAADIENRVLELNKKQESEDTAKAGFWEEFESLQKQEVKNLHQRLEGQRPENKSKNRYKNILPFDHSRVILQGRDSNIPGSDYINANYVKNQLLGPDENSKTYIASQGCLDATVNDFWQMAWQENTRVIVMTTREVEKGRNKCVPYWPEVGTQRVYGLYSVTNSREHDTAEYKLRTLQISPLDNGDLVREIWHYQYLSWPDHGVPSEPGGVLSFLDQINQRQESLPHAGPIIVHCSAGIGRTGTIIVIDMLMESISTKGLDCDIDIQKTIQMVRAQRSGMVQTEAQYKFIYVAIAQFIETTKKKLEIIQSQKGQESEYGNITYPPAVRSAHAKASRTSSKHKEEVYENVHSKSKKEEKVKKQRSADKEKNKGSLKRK
UniProt Q3V3R1, residues 32-977: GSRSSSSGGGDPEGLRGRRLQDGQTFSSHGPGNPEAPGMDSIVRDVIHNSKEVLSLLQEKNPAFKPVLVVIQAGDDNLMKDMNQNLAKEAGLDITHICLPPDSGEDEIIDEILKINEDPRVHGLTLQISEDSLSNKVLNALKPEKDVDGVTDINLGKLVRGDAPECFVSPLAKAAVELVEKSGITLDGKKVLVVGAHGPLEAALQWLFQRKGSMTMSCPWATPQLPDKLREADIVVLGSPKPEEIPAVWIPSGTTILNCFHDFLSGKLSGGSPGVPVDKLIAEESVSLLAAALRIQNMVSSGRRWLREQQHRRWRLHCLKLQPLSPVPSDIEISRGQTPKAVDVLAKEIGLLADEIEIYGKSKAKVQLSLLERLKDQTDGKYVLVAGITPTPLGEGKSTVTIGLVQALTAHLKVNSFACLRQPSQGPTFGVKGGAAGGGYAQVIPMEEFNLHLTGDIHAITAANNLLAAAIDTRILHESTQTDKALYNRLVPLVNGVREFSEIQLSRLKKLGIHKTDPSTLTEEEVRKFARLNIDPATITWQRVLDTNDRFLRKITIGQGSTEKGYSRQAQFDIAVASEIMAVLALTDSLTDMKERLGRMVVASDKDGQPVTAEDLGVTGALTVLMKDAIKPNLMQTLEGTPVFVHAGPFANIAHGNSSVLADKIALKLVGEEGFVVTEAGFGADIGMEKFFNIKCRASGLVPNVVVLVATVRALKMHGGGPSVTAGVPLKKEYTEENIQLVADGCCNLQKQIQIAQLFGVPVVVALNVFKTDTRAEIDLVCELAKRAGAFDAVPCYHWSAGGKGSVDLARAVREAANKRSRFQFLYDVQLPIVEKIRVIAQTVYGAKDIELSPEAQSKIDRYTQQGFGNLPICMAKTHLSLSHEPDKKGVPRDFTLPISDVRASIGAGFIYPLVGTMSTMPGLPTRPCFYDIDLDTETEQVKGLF
UniProt P11835, residues 24-771: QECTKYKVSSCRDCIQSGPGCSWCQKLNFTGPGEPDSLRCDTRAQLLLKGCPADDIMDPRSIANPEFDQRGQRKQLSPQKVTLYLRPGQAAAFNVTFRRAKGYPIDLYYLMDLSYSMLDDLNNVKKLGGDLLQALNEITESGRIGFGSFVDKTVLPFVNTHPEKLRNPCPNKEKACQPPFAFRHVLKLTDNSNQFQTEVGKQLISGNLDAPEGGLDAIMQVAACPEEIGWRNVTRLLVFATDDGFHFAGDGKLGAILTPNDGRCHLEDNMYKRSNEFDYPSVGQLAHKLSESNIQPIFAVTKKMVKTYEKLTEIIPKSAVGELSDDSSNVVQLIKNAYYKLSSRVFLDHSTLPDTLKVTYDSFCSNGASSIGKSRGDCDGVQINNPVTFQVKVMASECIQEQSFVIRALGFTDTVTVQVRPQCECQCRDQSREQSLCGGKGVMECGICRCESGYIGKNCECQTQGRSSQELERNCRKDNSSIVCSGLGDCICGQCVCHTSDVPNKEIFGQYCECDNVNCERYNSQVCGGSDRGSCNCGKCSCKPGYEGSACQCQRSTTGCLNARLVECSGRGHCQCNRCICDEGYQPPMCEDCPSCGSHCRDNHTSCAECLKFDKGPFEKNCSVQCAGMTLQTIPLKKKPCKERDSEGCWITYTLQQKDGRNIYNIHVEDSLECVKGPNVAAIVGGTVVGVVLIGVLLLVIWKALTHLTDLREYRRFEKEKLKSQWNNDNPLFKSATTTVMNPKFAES
UniProt Q91YL2: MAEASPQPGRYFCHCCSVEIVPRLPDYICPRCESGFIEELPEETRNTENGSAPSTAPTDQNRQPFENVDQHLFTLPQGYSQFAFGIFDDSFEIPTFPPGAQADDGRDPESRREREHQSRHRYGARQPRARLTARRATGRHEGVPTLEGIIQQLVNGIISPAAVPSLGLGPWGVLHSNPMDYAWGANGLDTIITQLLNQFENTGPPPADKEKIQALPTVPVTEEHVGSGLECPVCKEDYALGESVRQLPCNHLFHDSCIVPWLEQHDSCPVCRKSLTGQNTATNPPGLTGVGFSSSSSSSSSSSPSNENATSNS
UniProt P50637: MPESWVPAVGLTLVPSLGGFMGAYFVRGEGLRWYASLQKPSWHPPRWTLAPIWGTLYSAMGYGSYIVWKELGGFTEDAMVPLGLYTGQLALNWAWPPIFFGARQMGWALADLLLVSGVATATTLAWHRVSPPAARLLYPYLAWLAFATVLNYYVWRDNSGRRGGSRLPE
UniProt P20491, residues 19-86: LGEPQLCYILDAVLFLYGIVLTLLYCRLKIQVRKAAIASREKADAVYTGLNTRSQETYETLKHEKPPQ
UniProt P10852: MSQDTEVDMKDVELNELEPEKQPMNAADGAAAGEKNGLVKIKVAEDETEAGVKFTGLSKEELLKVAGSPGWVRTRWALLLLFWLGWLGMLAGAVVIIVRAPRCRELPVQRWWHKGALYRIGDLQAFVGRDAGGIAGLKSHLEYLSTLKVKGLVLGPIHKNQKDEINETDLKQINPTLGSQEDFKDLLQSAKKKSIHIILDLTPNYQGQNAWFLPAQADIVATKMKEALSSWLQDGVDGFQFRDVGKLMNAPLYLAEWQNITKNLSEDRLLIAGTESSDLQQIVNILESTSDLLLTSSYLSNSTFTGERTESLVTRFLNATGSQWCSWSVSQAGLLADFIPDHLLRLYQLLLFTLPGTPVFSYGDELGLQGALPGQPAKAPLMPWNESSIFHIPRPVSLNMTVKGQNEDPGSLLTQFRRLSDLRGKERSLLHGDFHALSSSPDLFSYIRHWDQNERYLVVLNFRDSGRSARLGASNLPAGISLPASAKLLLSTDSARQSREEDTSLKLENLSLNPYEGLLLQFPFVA
UniProt Q9D880, residues 22-353: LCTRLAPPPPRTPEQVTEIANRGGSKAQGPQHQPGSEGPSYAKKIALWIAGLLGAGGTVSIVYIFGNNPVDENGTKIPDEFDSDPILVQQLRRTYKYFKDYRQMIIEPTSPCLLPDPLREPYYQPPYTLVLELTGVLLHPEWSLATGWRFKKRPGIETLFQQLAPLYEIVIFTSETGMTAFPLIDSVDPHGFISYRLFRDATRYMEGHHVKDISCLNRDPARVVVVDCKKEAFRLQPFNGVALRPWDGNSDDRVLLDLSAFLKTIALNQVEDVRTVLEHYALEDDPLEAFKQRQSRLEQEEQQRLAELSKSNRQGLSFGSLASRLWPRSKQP

T1: MFSD7C tagged with both Myc and FLAG epitopes (murine) (mouse) (UniProt Q91X85)
T1 sequence: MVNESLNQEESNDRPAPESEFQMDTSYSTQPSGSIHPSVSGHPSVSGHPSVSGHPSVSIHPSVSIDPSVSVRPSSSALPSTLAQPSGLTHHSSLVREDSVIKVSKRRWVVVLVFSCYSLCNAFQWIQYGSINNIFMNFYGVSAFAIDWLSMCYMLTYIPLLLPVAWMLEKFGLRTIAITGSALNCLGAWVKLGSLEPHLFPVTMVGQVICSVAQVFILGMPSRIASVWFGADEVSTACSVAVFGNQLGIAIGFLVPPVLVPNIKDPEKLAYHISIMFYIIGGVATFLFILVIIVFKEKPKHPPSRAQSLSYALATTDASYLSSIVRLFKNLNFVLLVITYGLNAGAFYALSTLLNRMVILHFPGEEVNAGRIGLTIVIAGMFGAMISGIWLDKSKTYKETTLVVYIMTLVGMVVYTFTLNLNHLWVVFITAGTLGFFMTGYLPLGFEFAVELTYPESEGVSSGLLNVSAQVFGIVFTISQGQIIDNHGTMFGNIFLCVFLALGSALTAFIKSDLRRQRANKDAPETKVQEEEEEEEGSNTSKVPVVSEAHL

B1: HMOX1 (endogenous) (protein, UniProt P14901 1-289)
chain: MERPQPDSMPQDLSEALKEATKEVHIQAENAEFMKNFQKGQVSREGFKLVMASLYHIYTALEEEIERNKQNPVYAPLYFPEELHRRAALEQDMAFWYGPHWQEIIPCTPATQHYVKRLHEVGRTHPELLVAHAYTRYLGDLSGGQVLKKIAQKAMALPSSGEGLAFFTFPNIDSPTKFKQLYRARMNTLEMTPEVKHRVTEEAKTAFLLNIELFEELQVMLTEEHKDQSPSQMASLRQRPASLVQDTAPAETPRGKPQISTSSSQTPLLQWVLTLSFLLATVAVGIYAM
B2: Canx (protein, UniProt P35564 21-591)
chain: HDGHDDDAIDIEDDLDDVIEEVEDSKSKSDASTPPSPKVTYKAPVPTGEVYFADSFDRGSLSGWILSKAKKDDTDDEIAKYDGKWEVDEMKETKLPGDKGLVLMSRAKHHAISAKLNKPFLFDTKPLIVQYEVNFQNGIECGGAYVKLLSKTAELSLDQFHDKTPYTIMFGPDKCGEDYKLHFIFRHKNPKTGVYEEKHAKRPDADLKTYFTDKKTHLYTLILNPDNSFEILVDQSVVNSGNLLNDMTPPVNPSREIEDPEDRKPEDWDERPKIADPDAVKPDDWDEDAPSKIPDEEATKPEGWLDDEPEYIPDPDAEKPEDWDEDMDGEWEAPQIANPKCESAPGCGVWQRPMIDNPNYKGKWKPPMIDNPNYQGIWKPRKIPNPDFFEDLEPFKMTPFSAIGLELWSMTSDIFFDNFIISGDRRVVDDWANDGWGLKKAADGAAEPGVVLQMLEAAEERPWLWVVYILTVALPVFLVILFCCSGKKQSNAMEYKKTDAPQPDVKDEEGKEEEKNKRDEEEEEEKLEEKQKSDAEEDGVTGSQDEEDSKPKAEEDEILNRSPRNRKPRRE
B3: Ssr4 (protein, UniProt Q62186 24-172)
chain: ACLEPQITPSYYTTSDAVISTETVFIVEISLTCKNRVQNMALYADVSGKQFPVTRGQDVGRYQVSWSLEHKSAHAGTYEVRFFDEESYSLLRKAQRNNEDVSIIPPLFTVSVDHRGTWNGPWVSTEVLAAVIGIVIYYLAFSAKSHIQA
B4: Acsl5 (protein, UniProt Q8JZR0 1-683)
chain: MLFIFNFLFSPLPTPALICLLTFGTAIFLWLINRPQPVLPLIDLDNQSVGIEGGARRGAFQKNNDLILYYFSDAKTLYENFQRGLAVSDNGPCLGYRKPNQPYKWISYKQVSDRAEYLGSCLLHKGYKSSQDQFVGIFAQNRPEWVISELACYTYSMVAVPLYDTLGTEAIIFVINRADIPVVICDTPQKATMLVENVEKGLTPGLKTIILMDPFDDDLMKRGEKCGVEMLSLHDAENIGKENFKKPVPPKPEDLSVICFTSGTTGDPKGAMLTHENVVSNMAAFLKFLEPIFQPTSDDVTISYLPLAHMFERLVQGILFSCGGKIGFFQGDIRLLPDDMKALKPTVFPTVPRLLNRVYDKVQNEAKTPLKKFLLNLAIISKFNEVKNGIIRRDSLWDKLVFSKIQGSLGGKVRLMITGAAPISTPVLTFFRAAMGCWVFEAYGQTECTGGCSITSPGDWTAGHVGTPVACNFVKLEDVADMNYFSVNNEGEICIKGNNVFKGYLKDPEKTQEVLDKDGWLHTGDIGRWLPNGTLKIVDRKKNIFKLAQGEYIAPEKIENVYSRSRPVLQVFVHGESLRSFLIGVVVPDPDSLPSFAAKIGVKGSFEELCKNQCVKEAILEDLQKIGKEGGLKSFEQVKSIFVHPEPFTIENGLLTPTLKAKRVELAKFFQTQIKSLYESIEE
B5: Elovl1 (protein, UniProt Q9JLJ5 1-279)
chain: MEAVVNLYHELMKHADPRIQSYPLMGSPLLITSILLTYVYFILSLGPRIMANRKPFQLRGFMIVYNFSLVILSLYIVYEFLMSGWLSTYTWRCDPIDFSNSPEALRMVRVAWLFMLSKVIELMDTVIFILRKKDGQVTFLHVFHHSVLPWSWWWGIKIAPGGMGSFHAMINSSVHVVMYLYYGLSALGPVAQPYLWWKKHMTAIQLIQFVLVSLHISQYYFMPSCNYQYPIIIHLIWMYGTIFFILFSNFWYHSYTKGKRLPRAVQQNGAPATTKVKAN
B6: Cds2 (protein, UniProt Q99L43 1-444)
chain: MTELRQRVVREDAPPEDKESESEAKLDGETASDSESRAETAPLPTSVDDTPEVLNRALSNLSSRWKNWWVRGILTLAMIAFFFIIIYLGPMVLMMIVMCVQIKCFHEIITIGYNVYHSYDLPWFRTLSWYFLLCVNYFFYGETVTDYFFTLVQREEPLRILSKYHRFISFALYLTGFCMFVLSLVKKHYRLQFYMFGWTHVTLLIVVTQSHLVIHNLFEGMIWFIVPISCVICNDIMAYMFGFFFGRTPLIKLSPKKTWEGFIGGFFATVVFGLLLSYVMSGYRCFVCPVEYNNDTNSFTVDCEPSDLFRLQEYNIPGVIQSAIGWKTVRMYPFQIHSIALSTFASLIGPFGGFFASGFKRAFKIKDFANTIPGHGGIMDRFDCQYLMATFVNVYIASFIRGPNPSKLIQQFLTLRPDQQLHIFNTLKSHLTDKGILTSALEDE
B7: Asph (protein, UniProt Q8BSY0 1-741)
chain: MAPRKNAKGGGGNSSSSGSGSGSGSGSPSTGSSGSSSSPGARREAKHGGHKNGRRGGISGGSFFTWFMVIALLGVWTSVAVVWFDLVDYEEVLGKLGVYDADGDGDFDVDDAKVLLGLKERSPSERTFPPEEEAETHAELEEQAPEGADIQNVEDEVKEQIQSLLQESVHTDHDLEADGLAGEPQPEVEDFLTVTDSDDRFEDLEPGTVHEEIEDTYHVEDTASQNHPNDMEEMTNEQENSDPSEAVTDAGVLLPHAEEVRHQDYDEPVYEPSEHEGVAISDNTIDDSSIISEEINVASVEEQQDTPPVKKKKPKLLNKFDKTIKAELDAAEKLRKRGKIEEAVNAFEELVRKYPQSPRARYGKAQCEDDLAEKQRSNEVLRRAIETYQEAADLPDAPTDLVKLSLKRRSERQQFLGHMRGSLLTLQRLVQLFPSDTTLKNDLGVGYLLLGDNDSAKKVYEEVLNVTPNDGFAKVHYGFILKAQNKISESIPYLKEGIESGDPGTDDGRFYFHLGDAMQRVGNKEAYKWYELGHKRGHFASVWQRSLYNVNGLKAQPWWTPRETGYTELVKSLERNWKLIRDEGLMVMDKAKGLFLPEDENLREKGDWSQFTLWQQGRKNENACKGAPKTCALLEKFSETTGCRRGQIKYSIMHPGTHVWPHTGPTNCRLRMHLGLVIPKEGCKIRCANETRTWEEGKVLIFDDSFEHEVWQDASSFRLIFIVDVWHPELTPQQRRSLPAI
B8: Phb (protein, UniProt P67778 1-272)
chain: MAAKVFESIGKFGLALAVAGGVVNSALYNVDAGHRAVIFDRFRGVQDIVVGEGTHFLIPWVQKPIIFDCRSRPRNVPVITGSKDLQNVNITLRILFRPVASQLPRIYTSIGEDYDERVLPSITTEILKSVVARFDAGELITQRELVSRQVSDDLTERAATFGLILDDVSLTHLTFGKEFTEAVEAKQVAQQEAERARFVVEKAEQQKKAAIISAEGDSKAAELIANSLATAGDGLIELRKLEAAEDIAYQLSRSRNITYLPAGQSVLLQLPQ
B9: Tmx3 (protein, UniProt Q8BXZ1 30-456)
chain: FVEDLNESFKDNRKDDIWLVDFYAPWCGHCKKLEPIWNEVGLEMKSIGSPVKVGKMDATSYSSIASEFGVRGYPTIKLLKGDLAYNYRGPRTKDDIIEFAHRVSGALIRPLPSQQMFDHVRKRHRVFFVYIGGESPLKEKYIDAASELIVYTYFFSASEDVVPEYVTLKEMPAVLVFKDDTYFVYDEYEDGDLSSWISRERFQNYLTMDGFLLYELGDTGKLVAIAVIDEKNTSLEHTRLKSIIQEVARDFRDHFHRDFQFGHMDGNDYINTLLMDELTVPTIVVLNTSNQQYFLLDRHIKDASDMVQFINSILDGTVPAQGGDSIFQRLKRIVFDAKSTIVSIFKSSPLMGCFLFGLPLGVISIMCYGIYTADTDGGYIEERYEVSKSEMENQEQIEESKEQESSSGGSLAPTVQEPKDVLEKKKD
B10: Rdh13 (protein, UniProt Q8CEE7 1-334)
chain: MSRFLLPVSVVGTVIGGTVLLKDYVAGGACPSKATIPGKTVIVTGANTGIGKQTALELAKRGGNVILACRDMEKCEVAAKDIRGETLNPRVRAERLDLASLKSIREFARKVIKEEERVDILVNNAAVMRCPHWTTEDGFEMQFGVNYLGHFLLTNLLLDKLKASAPSRIINLSSLAHVAGHIDFEDLNWQMKKYDTKAAYCQSKLAVVLFTKELSHRLQGSGVTVNALHPGVARTELGRHTGMHNSAFSGFMLGPFFWLLFKSPQLAAQPSTYLAVAEELENVSGKYFDGLREKAPSPEAEDEEVARRLWTESARLVGLAMAHGSPGRGHAIPR

These molecules were tested against T1, MFSD7C tagged with both Myc and FLAG epitopes (murine) (mouse) (assay: affinity purification with mass spectrometry; lysate of MH-S cells expressing MFSD7C-FLAG-Myc (control: GFP alone); 20 mM Tris-HCl pH 7.4, 150 mM NaCl, 0.1% NP-40, 10% glycerol; anti-FLAG beads, 3x FLAG peptide elution, then anti-Myc beads; LC-MS/MS).
With Sqrdl (mouse (endogenous in MH-S)) the binding was “binds”.
For Dnaja3 (mouse (endogenous in MH-S)), the binding was “binds”.
For Amfr (from UniProt Q9R049 1-643), the binding was “binds”.
“Atp2a2 (SERCA2b) (endogenous) (from UniProt O55143-1 1-1044)” was tested, and the binding was “binds”.
In the case of Hax1 (from UniProt O35387 1-280), the binding is reported as “binds”.
“ATP5h (endogenous) (from UniProt Q9DCX2 1-161)” was tested, and the binding was “binds”.
With Afg3l2 (from UniProt Q8JZQ2 67-802) the binding was “binds”.
In the case of Ptpn6 (from UniProt P29351 1-595), the binding is reported as “binds”.
With Mthfd1l (from UniProt Q3V3R1 32-977) the binding was “binds”.
In the case of Dnaja1 (from UniProt P63037 1-397), the binding is reported as “binds”.
For Itgb2 (from UniProt P11835 24-771), the binding was “binds”.
In the case of Rnf126 (from UniProt Q91YL2 1-313), the binding is reported as “binds”.
With Slc43a2 (from UniProt Q8CGA3 1-568) the binding was “binds”.
In the case of Tspo (from UniProt P50637 1-169), the binding is reported as “binds”.
Fcer1g (from UniProt P20491 19-86) was tested, and the binding was “binds”.
For Slc3a2 (from UniProt P10852 1-526), the binding was “binds”.
In the case of TIM50 (from UniProt Q9D880 22-353), the binding is reported as “binds”.
In the case of B1, the binding is reported as “binds”.
In the case of B2, the binding is reported as “binds”.
B3 was tested, and the binding was “binds”.
In the case of B4, the binding is reported as “binds”.
In the case of B5, the binding is reported as “binds”.
B6 was tested, and the binding was “binds”.
For B7, the binding was “binds”.
In the case of B8, the binding is reported as “binds”.
In the case of B9, the binding is reported as “binds”.
With B10 the binding was “binds”.
